These are yes or no findings as the source states them, for the method shown. Binding seen in cells or lysates may run through a third protein. A result given as binding can be weak or reduced; the word gives no strength. Where a sequence is shown, tags or fusion partners need not be part of it.
Tests used:
Assay in all cases: split reporter; Bimolecular luciferase complementation (BiLC) in N. benthamiana leaves after Agrobacterium infiltration; nLUC and cLUC fusions; luciferin 1 mM, LUC activity monitored after 2 days
[1] = target: T1, Tetraspanin 8 (TET8), full length, fused to cLUC (Arabidopsis thaliana) (UniProt Q8S8Q6)
T1 sequence: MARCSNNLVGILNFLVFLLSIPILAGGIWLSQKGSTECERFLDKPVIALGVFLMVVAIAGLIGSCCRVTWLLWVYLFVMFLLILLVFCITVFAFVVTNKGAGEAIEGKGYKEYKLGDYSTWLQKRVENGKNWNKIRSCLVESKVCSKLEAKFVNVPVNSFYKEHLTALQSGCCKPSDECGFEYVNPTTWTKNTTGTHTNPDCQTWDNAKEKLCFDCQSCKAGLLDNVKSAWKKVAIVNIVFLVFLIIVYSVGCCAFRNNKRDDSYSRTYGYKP

[2] = target: T2, Patellin 2 (PATL2), full length, fused to nLUC (Arabidopsis thaliana) (UniProt Q56ZI2)
T2 sequence: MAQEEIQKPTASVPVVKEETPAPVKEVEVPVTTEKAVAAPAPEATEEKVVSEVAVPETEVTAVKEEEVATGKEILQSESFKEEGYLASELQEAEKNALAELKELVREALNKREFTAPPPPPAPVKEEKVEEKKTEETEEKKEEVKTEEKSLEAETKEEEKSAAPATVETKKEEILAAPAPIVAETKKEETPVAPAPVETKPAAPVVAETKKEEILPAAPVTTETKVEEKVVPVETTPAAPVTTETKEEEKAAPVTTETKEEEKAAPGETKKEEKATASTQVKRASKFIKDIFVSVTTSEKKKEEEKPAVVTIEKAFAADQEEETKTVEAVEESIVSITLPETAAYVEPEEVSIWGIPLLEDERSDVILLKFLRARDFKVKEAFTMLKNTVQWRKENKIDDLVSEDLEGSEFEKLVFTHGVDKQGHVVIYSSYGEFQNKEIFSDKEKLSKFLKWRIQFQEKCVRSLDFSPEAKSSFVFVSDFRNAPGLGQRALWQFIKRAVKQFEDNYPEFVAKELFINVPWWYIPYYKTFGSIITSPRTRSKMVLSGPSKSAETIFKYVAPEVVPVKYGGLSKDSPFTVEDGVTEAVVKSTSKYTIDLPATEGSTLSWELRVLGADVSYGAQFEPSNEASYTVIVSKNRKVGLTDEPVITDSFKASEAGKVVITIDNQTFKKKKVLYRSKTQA

[3] = target: T3, Choline transporter-like 1 (CTL1), full length, fused to nLUC (Arabidopsis thaliana) (UniProt Q94AN2)
T3 sequence: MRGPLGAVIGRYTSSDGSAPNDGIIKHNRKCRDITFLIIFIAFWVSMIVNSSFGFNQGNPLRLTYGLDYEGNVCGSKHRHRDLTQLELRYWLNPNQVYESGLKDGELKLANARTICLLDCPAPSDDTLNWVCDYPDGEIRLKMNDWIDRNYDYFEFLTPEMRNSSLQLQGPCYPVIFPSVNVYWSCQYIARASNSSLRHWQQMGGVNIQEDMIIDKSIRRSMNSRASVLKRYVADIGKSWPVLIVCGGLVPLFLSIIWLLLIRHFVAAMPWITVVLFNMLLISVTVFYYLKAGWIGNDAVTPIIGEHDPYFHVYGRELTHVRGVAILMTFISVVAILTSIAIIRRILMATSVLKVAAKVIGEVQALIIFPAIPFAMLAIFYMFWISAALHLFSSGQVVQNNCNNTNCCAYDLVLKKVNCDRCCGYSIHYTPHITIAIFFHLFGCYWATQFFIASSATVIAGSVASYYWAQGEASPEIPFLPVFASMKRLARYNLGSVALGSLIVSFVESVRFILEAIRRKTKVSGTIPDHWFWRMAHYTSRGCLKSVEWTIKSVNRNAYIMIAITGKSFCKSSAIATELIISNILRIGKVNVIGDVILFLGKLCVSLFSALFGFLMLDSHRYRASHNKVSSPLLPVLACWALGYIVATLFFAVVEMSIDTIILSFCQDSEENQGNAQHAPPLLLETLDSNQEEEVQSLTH

binding [1]	binding [2]	binding [3]	Substance
binds	–	–	HARP1 fused to the amino-terminal half of luciferase (nLUC) (Helicoverpa armigera)
–	binds	binds	HARP1 fused to the carboxyl-terminal half of luciferase (cLUC) (Helicoverpa armigera)

Source: article PMC10582130
